Measurements taken from article PMC11538512.
These are yes or no findings as the source states them, for the method shown. Binding seen in cells or lysates may run through a third protein. Some binding calls cover weakened binding; strength is not graded here.

Chains of the proteins cited; added tags and fusions are not shown.
UniProt Q14145: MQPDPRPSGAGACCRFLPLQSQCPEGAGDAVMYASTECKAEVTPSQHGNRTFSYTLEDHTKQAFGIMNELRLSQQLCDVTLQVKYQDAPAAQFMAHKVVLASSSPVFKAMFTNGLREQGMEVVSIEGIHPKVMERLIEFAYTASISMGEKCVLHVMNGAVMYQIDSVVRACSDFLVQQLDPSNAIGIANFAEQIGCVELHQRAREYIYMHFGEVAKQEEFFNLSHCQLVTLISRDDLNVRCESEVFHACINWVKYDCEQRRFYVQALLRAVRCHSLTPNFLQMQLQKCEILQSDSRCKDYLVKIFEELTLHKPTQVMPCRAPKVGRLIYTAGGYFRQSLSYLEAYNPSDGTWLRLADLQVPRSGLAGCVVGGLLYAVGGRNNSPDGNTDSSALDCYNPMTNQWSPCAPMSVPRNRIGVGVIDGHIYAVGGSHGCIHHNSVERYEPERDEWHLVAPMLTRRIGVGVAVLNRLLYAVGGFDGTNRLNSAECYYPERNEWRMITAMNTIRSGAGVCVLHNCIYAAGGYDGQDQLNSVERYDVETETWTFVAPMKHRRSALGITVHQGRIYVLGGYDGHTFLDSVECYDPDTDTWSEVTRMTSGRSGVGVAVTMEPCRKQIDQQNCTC
UniProt Q15149: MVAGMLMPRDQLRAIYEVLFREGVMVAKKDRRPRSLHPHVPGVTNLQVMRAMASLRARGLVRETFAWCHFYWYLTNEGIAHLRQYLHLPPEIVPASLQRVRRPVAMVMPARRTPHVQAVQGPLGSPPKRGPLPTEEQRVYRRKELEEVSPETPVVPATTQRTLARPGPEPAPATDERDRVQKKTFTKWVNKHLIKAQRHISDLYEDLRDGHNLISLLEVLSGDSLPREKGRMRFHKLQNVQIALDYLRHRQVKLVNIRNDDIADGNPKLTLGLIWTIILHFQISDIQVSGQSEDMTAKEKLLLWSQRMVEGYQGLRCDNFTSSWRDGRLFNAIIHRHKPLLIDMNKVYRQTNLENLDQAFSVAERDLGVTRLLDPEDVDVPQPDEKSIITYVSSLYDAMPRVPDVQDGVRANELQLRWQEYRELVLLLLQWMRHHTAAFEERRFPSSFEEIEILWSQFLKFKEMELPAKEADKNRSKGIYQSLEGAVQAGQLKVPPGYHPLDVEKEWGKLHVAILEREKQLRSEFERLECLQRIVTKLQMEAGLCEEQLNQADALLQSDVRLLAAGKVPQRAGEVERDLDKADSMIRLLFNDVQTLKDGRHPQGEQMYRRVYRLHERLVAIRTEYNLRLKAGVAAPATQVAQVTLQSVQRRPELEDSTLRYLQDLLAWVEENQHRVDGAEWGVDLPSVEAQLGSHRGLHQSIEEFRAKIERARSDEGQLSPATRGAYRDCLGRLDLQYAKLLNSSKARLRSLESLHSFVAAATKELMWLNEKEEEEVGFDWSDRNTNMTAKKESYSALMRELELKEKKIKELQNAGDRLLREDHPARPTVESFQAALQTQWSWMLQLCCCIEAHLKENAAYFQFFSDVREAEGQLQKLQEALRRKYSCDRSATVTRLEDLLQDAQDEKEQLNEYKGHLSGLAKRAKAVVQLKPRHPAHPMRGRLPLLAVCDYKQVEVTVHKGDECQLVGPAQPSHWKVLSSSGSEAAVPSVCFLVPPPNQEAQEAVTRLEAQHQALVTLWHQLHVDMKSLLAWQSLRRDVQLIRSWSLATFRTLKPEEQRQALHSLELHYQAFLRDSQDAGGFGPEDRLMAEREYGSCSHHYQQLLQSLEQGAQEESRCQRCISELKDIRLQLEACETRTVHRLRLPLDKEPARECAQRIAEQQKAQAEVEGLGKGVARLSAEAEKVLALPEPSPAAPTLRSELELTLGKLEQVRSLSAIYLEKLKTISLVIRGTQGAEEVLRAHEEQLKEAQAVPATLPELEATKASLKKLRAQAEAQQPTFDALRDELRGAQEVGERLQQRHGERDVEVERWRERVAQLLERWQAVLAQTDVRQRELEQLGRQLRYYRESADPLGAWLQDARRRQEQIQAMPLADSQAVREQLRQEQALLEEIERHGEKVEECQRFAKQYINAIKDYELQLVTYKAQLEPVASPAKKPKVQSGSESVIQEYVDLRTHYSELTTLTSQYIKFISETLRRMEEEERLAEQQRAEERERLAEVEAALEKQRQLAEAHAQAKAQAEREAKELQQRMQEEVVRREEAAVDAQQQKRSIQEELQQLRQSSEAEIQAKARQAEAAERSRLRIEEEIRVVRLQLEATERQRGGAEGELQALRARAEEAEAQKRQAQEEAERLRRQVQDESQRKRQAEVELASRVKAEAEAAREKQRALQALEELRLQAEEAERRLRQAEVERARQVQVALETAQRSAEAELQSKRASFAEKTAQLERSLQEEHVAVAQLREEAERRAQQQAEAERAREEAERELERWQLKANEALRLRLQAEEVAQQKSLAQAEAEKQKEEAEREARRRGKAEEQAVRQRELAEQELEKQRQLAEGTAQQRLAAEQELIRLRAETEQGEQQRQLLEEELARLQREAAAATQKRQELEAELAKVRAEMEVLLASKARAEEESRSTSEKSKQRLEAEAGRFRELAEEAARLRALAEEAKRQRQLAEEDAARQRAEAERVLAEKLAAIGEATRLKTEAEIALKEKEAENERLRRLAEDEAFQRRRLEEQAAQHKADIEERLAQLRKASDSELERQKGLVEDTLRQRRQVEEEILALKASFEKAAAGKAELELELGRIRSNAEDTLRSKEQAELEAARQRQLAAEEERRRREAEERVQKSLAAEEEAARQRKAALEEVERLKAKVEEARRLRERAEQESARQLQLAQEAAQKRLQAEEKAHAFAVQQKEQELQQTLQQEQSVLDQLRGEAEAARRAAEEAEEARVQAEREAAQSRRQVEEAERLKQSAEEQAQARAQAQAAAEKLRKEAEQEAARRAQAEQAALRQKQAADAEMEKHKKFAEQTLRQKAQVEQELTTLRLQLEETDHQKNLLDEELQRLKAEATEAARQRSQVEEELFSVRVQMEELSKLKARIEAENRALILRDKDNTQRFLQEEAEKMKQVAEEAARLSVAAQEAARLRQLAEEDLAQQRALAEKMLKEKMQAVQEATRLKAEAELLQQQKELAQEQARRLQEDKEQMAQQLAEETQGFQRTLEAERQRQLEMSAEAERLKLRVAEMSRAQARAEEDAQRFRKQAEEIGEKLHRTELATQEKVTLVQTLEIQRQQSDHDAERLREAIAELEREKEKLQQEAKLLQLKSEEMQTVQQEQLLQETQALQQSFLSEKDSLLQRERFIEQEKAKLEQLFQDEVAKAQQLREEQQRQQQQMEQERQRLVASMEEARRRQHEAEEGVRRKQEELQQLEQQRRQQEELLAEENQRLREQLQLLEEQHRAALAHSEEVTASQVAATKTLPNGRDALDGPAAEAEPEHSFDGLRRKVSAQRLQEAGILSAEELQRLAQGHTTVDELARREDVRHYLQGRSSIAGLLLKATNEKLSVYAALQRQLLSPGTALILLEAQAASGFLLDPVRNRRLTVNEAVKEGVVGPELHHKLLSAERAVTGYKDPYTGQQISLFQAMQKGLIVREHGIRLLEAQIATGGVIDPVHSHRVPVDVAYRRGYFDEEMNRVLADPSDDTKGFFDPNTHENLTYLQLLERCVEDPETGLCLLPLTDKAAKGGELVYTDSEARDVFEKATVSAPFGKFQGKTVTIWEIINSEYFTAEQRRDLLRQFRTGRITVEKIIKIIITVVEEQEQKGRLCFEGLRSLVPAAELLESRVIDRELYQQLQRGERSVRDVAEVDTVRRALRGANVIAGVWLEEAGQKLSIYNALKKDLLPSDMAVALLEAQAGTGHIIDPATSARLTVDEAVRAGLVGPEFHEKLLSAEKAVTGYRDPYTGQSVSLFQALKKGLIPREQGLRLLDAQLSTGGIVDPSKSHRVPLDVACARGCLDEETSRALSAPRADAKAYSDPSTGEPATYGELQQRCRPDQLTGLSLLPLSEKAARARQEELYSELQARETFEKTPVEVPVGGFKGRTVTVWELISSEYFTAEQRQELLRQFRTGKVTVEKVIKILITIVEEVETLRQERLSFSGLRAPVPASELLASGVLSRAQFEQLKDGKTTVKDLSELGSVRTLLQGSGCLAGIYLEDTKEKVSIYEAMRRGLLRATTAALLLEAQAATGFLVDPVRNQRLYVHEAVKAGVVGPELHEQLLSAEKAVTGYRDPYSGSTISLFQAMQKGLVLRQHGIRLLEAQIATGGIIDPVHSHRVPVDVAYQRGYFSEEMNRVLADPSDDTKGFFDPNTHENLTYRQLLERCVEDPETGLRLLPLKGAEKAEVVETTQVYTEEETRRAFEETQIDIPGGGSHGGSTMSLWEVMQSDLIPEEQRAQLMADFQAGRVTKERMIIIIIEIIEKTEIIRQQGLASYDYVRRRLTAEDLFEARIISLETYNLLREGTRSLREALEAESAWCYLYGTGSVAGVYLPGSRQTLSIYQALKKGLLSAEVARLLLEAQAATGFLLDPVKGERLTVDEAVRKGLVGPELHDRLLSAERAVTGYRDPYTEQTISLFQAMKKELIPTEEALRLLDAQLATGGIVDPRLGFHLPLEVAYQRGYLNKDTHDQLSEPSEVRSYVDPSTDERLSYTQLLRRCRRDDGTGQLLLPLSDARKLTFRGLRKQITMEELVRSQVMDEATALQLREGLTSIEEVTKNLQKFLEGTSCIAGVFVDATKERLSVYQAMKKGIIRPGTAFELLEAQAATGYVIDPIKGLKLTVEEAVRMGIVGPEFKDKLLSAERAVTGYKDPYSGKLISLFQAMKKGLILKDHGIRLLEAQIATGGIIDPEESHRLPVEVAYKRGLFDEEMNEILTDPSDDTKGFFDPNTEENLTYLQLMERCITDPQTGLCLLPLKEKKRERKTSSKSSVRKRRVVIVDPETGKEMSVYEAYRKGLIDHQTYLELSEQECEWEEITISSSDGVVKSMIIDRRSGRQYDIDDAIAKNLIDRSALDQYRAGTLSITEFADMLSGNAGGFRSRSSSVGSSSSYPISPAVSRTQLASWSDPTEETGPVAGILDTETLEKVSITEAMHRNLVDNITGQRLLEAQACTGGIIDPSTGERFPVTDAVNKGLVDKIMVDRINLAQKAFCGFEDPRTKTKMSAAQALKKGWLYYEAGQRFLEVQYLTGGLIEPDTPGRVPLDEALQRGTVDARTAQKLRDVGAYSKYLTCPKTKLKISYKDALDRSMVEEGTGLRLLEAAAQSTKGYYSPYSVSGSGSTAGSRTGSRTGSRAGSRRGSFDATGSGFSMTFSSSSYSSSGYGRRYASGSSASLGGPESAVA

How the values were obtained:
[1] = molecular target: KEAP1 (human (endogenous in KYSE450)) (UniProt Q14145); assay: co-IP; endogenous proteins in KYSE450 lysate (cells with shC or shp63 in Fig. 2L); IP with anti-KEAP1 or anti-PLEC, normal IgG as control; lysis buffer 50 mM Tris HCl pH 7.4, 150 mM NaCl, 1 mM EDTA, 1% Nonidet P-40; overnight 4 °C; immunoblot
[2] = molecular target: HA-tagged PLEC^WT (in KYSE450) (human) (UniProt Q15149); assay: co-IP; KYSE450 cells expressing HA-tagged PLEC^WT, PLEC^ΔEQGE or PLEC^EQGA; anti-HA IP; co-precipitating endogenous KEAP1 by immunoblot
[3] = molecular target: Plectin (PLEC) (human (endogenous in KYSE450)) (UniProt Q15149); assay: co-IP; endogenous proteins in KYSE450 lysate (cells with shC or shp63 in Fig. 2L); IP with anti-KEAP1 or anti-PLEC, normal IgG as control; lysis buffer 50 mM Tris HCl pH 7.4, 150 mM NaCl, 1 mM EDTA, 1% Nonidet P-40; overnight 4 °C; immunoblot
[4] = molecular target: Flag-tagged KEAP1 (human) (UniProt Q14145); assay: co-IP; HEK-293T cells co-transfected with NRF2, Flag-KEAP1 and/or HA-PLEC (increasing PLEC); anti-Flag IP; immunoblot

Substance: Plectin (PLEC) (from UniProt Q15149 1-4684)
- binding [1]: binds

Substance: KEAP1 (from UniProt Q14145 1-624)
- binding [2]: binds
- binding [3]: binds

Substance: HA-tagged PLEC (in HEK-293T) (from UniProt Q15149 1-4684)
- binding [4]: binds
